# The list shows a part of the results.
# B1: Wzz (Escherichia coli) (protein)
# chain: MRTWKFPSVRVMMRVENNNVSGQNHDPEQIDLIDLLVQLWRGKMTIIISVIVAIVLAIGYLAVAKEKWTSTAIITQPDVGQIAGYNNAMNVIYGQAAPKVSDLQETLIGRFSSAFSALAETLDNQEEPEKLTIEPSVKNQQLPLTVSYVGQTAEGAQMKLAQYIQQVDDKVNQELEKDLKDNIALGRKNLQDSLRTQEVVAQEQKDLRIRQIQEALQYANQAQVTKPQIQQTGEDITQDTLFLLGSEALESMIKHEATRPLVFSSNYYQTRQNLLDIDNLDVDKLDIHAYLYVMKPTLPIRRDSPKKAITLILAVLLGGMVGAGIVLGRNALRNYNAK
# Experiments:
# Experiment in all cases: glycan array binding signal (z-score within array); higher = stronger binding
# Details in all cases: glycan notation: IUPAC condensed, linker removed
# [1] = molecular target: Neu5Ac(a2-3)Gal(b1-4)GlcNAc(b1-3)Gal(b1-4)GlcNAc(b1-3)Gal(b1-4)GlcNAc
# In short: (§1)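 Columns mapping to the same glycan were averaged after glycan names were converted to IUPAC-condensed notation. The data come from 3228 arrays in the Consortium for Functional Glycomics database, limited to those with an available protein sequence. Binding is reported as a within-array Z-score averaged across arrays of one protein sequence and across linkers.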
# [2] = molecular target: Neu5Ac(a2-3)Gal(b1-4)GlcNAc(b1-3)Gal(b1-4)GlcNAc(b1-3)Gal(b1-4)GlcNAc(b1-2)Man(a1-3)[Neu5Ac(a2-3)Gal(b1-4)GlcNAc(b1-3)Gal(b1-4)GlcNAc(b1-3)Gal(b1-4)GlcNAc(b1-2)Man(a1-6)]GalNAc
# In short: as §1
# [3] = molecular target: Neu5Ac(a2-3)Gal(b1-4)GlcNAc(b1-3)Gal(b1-4)GlcNAc(b1-3)GalNAc
# In short: as §1
# [4] = molecular target: Neu5Ac(a2-3)Gal(b1-4)GlcNAc(b1-3)Gal(b1-4)GlcNAc(b1-3)[Neu5Ac(a2-3)Gal(b1-4)GlcNAc(b1-3)Gal(b1-4)GlcNAc(b1-6)]GalNAc
# In short: as §1
# [5] = molecular target: Neu5Ac(a2-3)Gal(b1-4)GlcNAc(b1-3)Gal(b1-4)GlcNAc(b1-6)[Gal(b1-3)]GalNAc
# In short: as §1
# [6] = molecular target: Neu5Ac(a2-3)Gal(b1-4)GlcNAc(b1-3)Gal(b1-4)[Fuc(a1-3)]GlcNAc
# In short: as §1
# [7] = molecular target: Neu5Ac(a2-3)Gal(b1-4)GlcNAc(b1-3)GalNAc
# In short: as §1
# [8] = molecular target: Neu5Ac(a2-3)Gal(b1-4)GlcNAc(b1-3)[Neu5Ac(a2-3)Gal(b1-4)GlcNAc(b1-6)]GalNAc
# In short: as §1
# [9] = molecular target: Neu5Ac(a2-3)Gal(b1-4)GlcNAc(b1-6)GalNAc
# In short: as §1
# [10] = molecular target: Neu5Ac(a2-3)Gal(b1-4)GlcNAc(b1-6)[Gal(b1-3)]GalNAc
# In short: as §1
# [11] = molecular target: Neu5Ac(a2-3)Gal(b1-4)GlcNAc(b1-6)[Neu5Ac(a2-3)Gal(b1-3)]GalNAc
# In short: as §1
# [12] = molecular target: Neu5Ac(a2-3)Gal(b1-4)GlcNAc6S
# In short: as §1
# [13] = molecular target: Neu5Ac(a2-3)Gal(b1-4)[Fuc(a1-3)]GlcNAc
# In short: as §1
# [14] = molecular target: Neu5Ac(a2-3)Gal(b1-4)[Fuc(a1-3)]GlcNAc(b1-2)Man
# In short: as §1
# [15] = molecular target: Neu5Ac(a2-3)Gal(b1-4)[Fuc(a1-3)]GlcNAc(b1-3)Gal
# In short: as §1
# [16] = molecular target: Neu5Ac(a2-3)Gal(b1-4)[Fuc(a1-3)]GlcNAc(b1-3)Gal(b1-4)GlcNAc
# In short: as §1
# [17] = molecular target: Neu5Ac(a2-3)Gal(b1-4)[Fuc(a1-3)]GlcNAc(b1-3)Gal(b1-4)[Fuc(a1-3)]GlcNAc(b1-3)Gal(b1-4)[Fuc(a1-3)]GlcNAc
# In short: as §1
# [18] = molecular target: Neu5Ac(a2-3)Gal(b1-4)[Fuc(a1-3)]GlcNAc(b1-3)GalNAc
# In short: as §1
# [19] = molecular target: Neu5Ac(a2-3)Gal(b1-4)[Fuc(a1-3)]GlcNAc(b1-6)[Gal(b1-3)]GalNAc
# In short: as §1
# [20] = molecular target: Neu5Ac(a2-3)Gal(b1-4)[Fuc(a1-3)]GlcNAc(b1-6)[Neu5Ac(a2-3)Gal(b1-3)]GalNAc
# In short: as §1
# [21] = molecular target: Neu5Ac(a2-3)Gal(b1-4)[Fuc(a1-3)]GlcNAc6S
# In short: as §1
# [22] = molecular target: Neu5Ac(a2-3)Gal6S(b1-4)GlcNAc
# In short: as §1
# [23] = molecular target: Neu5Ac(a2-3)Gal6S(b1-4)[Fuc(a1-3)]GlcNAc
# In short: as §1
# Neu5Ac(a2-3)GalNAc = molecular target: Neu5Ac(a2-3)GalNAc
# In short: as §1
# [24] = molecular target: Neu5Ac(a2-3)GalNAc(b1-4)GlcNAc
# In short: as §1
# [25] = molecular target: Neu5Ac(a2-3)[GalNAc(b1-4)]Gal(b1-4)Glc
# In short: as §1
# [26] = molecular target: Neu5Ac(a2-3)[GalNAc(b1-4)]Gal(b1-4)GlcNAc
# In short: as §1
# [27] = molecular target: Neu5Ac(a2-3)[GalNAc(b1-4)]Gal(b1-4)GlcNAc(b1-3)GalNAc
# In short: as §1
# [28] = molecular target: Neu5Ac(a2-3)[Neu5Ac(a2-6)]GalNAc
# In short: as §1
# Neu5Ac(a2-6)Gal = molecular target: Neu5Ac(a2-6)Gal
# In short: as §1
# [29] = molecular target: Neu5Ac(a2-6)Gal(b1-3)GlcNAc(b1-3)[Gal(b1-4)GlcNAc(b1-6)]Gal(b1-4)Glc
# In short: as §1
# Neu5Ac(a2-6)Gal(b1-4)Glc = molecular target: Neu5Ac(a2-6)Gal(b1-4)Glc
# In short: as §1
# [30] = molecular target: Neu5Ac(a2-6)Gal(b1-4)GlcNAc
# In short: as §1
# [31] = molecular target: Neu5Ac(a2-6)Gal(b1-4)GlcNAc(b1-2)Man
# In short: as §1
# [32] = molecular target: Neu5Ac(a2-6)Gal(b1-4)GlcNAc(b1-2)Man(a1-3)Man(b1-4)GlcNAc(b1-4)GlcNAc
# In short: as §1
# [33] = molecular target: Neu5Ac(a2-6)Gal(b1-4)GlcNAc(b1-2)Man(a1-3)[Gal(b1-4)GlcNAc(b1-2)Man(a1-6)]Man(b1-4)GlcNAc(b1-4)GlcNAc
# In short: as §1
# [34] = molecular target: Neu5Ac(a2-6)Gal(b1-4)GlcNAc(b1-2)Man(a1-3)[GlcNAc(b1-2)Man(a1-6)]Man(b1-4)GlcNAc(b1-4)GlcNAc
# In short: as §1
# [35] = molecular target: Neu5Ac(a2-6)Gal(b1-4)GlcNAc(b1-2)Man(a1-3)[GlcNAc(b1-4)][Neu5Ac(a2-6)Gal(b1-4)GlcNAc(b1-2)Man(a1-6)]Man(b1-4)GlcNAc(b1-4)GlcNAc
# In short: as §1
binder,measurement,setting,value
B1,glycan array binding signal (z-score),[1],-0.157
same,glycan array binding signal (z-score),[2],0.235
same,glycan array binding signal (z-score),[3],0.258
same,glycan array binding signal (z-score),[4],-0.456
same,glycan array binding signal (z-score),[5],-0.143
same,glycan array binding signal (z-score),[6],-0.716
same,glycan array binding signal (z-score),[7],0.359
same,glycan array binding signal (z-score),[8],-0.026
same,glycan array binding signal (z-score),[9],-0.567
same,glycan array binding signal (z-score),[10],-0.035
same,glycan array binding signal (z-score),[11],-0.06
same,glycan array binding signal (z-score),[12],0.276
same,glycan array binding signal (z-score),[13],-0.934
same,glycan array binding signal (z-score),[14],-0.242
same,glycan array binding signal (z-score),[15],-0.557
same,glycan array binding signal (z-score),[16],0.481
same,glycan array binding signal (z-score),[17],-1.71
same,glycan array binding signal (z-score),[18],1.42
same,glycan array binding signal (z-score),[19],0.404
same,glycan array binding signal (z-score),[20],0.143
same,glycan array binding signal (z-score),[21],-0.072
same,glycan array binding signal (z-score),[22],0.27
same,glycan array binding signal (z-score),[23],-1.16
same,glycan array binding signal (z-score),Neu5Ac(a2-3)GalNAc,-0.218
same,glycan array binding signal (z-score),[24],-0.034
same,glycan array binding signal (z-score),[25],-0.397
same,glycan array binding signal (z-score),[26],-0.758
same,glycan array binding signal (z-score),[27],0.039
same,glycan array binding signal (z-score),[28],-0.303
same,glycan array binding signal (z-score),Neu5Ac(a2-6)Gal,0.542
same,glycan array binding signal (z-score),[29],-1.02
same,glycan array binding signal (z-score),Neu5Ac(a2-6)Gal(b1-4)Glc,0.167
same,glycan array binding signal (z-score),[30],-0.535
same,glycan array binding signal (z-score),[31],-0.299
same,glycan array binding signal (z-score),[32],0.55
same,glycan array binding signal (z-score),[33],0.344
same,glycan array binding signal (z-score),[34],1.21
same,glycan array binding signal (z-score),[35],0.617

# Looked up one by one from the list above, 2 records:
binder,measurement,setting,value
B1,glycan array binding signal (z-score),[31],-0.299
same,glycan array binding signal (z-score),[4],-0.456

# Reference: the supplement of paper PMC8728848
